Laboratory results reported in article PMC543449.
No constants are given. Whether binding was seen depends on the method and setting.

Chains of the proteins cited; added tags and fusions are not shown. Residues count along the entry.
UniProt P02769, residues 25-607: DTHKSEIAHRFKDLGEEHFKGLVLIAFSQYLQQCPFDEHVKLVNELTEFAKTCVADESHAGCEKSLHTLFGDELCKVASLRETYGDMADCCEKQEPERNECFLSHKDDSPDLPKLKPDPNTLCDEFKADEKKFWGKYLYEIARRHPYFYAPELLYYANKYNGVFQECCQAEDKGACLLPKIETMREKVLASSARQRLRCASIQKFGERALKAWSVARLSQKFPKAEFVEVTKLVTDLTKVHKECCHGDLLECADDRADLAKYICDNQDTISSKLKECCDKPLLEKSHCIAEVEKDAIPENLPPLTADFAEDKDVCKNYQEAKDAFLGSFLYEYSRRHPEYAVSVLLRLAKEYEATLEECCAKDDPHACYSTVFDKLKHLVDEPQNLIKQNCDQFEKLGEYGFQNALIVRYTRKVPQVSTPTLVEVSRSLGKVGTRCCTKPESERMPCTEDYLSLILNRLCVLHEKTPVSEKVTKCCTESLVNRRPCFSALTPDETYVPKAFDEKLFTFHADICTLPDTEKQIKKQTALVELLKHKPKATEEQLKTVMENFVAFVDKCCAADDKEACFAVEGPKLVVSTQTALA
UniProt P35247, residues 21-375: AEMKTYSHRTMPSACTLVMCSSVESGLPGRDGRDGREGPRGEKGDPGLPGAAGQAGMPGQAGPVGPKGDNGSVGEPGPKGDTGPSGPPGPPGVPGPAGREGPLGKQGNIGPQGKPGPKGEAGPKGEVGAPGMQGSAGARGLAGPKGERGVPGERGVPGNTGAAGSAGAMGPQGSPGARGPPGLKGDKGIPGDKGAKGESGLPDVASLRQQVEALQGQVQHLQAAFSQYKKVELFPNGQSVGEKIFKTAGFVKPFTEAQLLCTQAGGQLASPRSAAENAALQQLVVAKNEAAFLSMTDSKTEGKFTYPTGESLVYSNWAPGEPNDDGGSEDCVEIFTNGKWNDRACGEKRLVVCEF

Target: bovine serum albumin (bovine) (UniProt P02769)
Test: ELISA; BSA coated on microtiter wells (10 μg/ml in 0.1 M NaHCO3 pH 9.6, 0.5 μg/well); 1–10 μg/ml SP-A or SP-D in 20 mM Tris pH 7.4, 0.15 M NaCl, 5 mM CaCl2, 1 mg/ml BSA, 3 h at 37°C; detected with anti-SP-A or anti-SP-D antibody and HRP anti-rabbit IgG; both purified

- binding: no binding (tested: 1–10 μg/ml)
Substance: recombinant human surfactant protein D (SP-D) (from UniProt P35247 21-375)
